No constants are given. Whether binding was seen depends on the method and setting. In cells and extracts the contact can be indirect. A yes stands for co-enrichment or nearness to the bait. Other partners may have been found. For some assays here: Where a sequence is shown, tags or fusion partners need not be part of it.
Tests used:
Test in all cases: affinity purification with mass spectrometry; 3xFLAG-tagged catalytic subunit (WT or ΔL) transfected in FreeStyle 293F cells; FLAG M2 affinity gel, 3 h at 4 °C; lysis and wash buffer 50 mM Tris pH 7.5, 500 mM NaCl, 0.5% Triton X-100; eluted with 3XFLAG peptide; label-free quantitative LC-MS/MS on unique peptides, three replicates
[1] = biological target: 3xFLAG-tagged PP2Acβ, wild type (human) (UniProt P62714)
[2] = biological target: T1, 3xFLAG-tagged PP4c ΔL mutant (Leu 307 deleted) (human) (UniProt P60510)
T1 sequence: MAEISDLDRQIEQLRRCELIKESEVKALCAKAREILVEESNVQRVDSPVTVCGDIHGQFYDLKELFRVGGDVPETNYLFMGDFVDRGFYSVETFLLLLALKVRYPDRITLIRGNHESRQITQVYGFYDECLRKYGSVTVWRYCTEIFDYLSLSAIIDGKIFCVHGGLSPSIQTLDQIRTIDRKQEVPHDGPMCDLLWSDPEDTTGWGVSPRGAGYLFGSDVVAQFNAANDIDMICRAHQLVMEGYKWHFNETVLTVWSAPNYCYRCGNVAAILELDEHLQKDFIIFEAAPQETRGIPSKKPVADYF

The chains behind the UniProt entries cited, without tags or fusion partners.
UniProt P62714: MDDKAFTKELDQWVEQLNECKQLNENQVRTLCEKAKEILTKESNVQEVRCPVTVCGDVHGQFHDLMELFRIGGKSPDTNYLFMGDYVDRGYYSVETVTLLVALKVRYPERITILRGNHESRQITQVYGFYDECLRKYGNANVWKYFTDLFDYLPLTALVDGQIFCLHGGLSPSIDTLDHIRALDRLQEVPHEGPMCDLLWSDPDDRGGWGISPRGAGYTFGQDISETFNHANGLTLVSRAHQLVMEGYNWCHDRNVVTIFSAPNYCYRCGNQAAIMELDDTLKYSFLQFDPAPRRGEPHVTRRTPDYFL
UniProt Q15172: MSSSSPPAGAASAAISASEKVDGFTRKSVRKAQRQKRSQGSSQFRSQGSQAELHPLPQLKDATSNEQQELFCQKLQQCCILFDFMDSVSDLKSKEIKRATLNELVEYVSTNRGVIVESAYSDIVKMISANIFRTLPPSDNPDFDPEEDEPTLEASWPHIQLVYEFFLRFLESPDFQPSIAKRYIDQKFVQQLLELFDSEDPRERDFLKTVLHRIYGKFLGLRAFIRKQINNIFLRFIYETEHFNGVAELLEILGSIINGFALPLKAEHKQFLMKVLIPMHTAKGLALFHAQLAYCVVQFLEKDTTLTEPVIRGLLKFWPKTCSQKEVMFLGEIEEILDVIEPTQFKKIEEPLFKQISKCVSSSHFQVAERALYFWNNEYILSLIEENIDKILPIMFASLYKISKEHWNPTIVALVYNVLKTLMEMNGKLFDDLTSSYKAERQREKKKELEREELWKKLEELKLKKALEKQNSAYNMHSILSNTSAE
UniProt Q5MIZ7: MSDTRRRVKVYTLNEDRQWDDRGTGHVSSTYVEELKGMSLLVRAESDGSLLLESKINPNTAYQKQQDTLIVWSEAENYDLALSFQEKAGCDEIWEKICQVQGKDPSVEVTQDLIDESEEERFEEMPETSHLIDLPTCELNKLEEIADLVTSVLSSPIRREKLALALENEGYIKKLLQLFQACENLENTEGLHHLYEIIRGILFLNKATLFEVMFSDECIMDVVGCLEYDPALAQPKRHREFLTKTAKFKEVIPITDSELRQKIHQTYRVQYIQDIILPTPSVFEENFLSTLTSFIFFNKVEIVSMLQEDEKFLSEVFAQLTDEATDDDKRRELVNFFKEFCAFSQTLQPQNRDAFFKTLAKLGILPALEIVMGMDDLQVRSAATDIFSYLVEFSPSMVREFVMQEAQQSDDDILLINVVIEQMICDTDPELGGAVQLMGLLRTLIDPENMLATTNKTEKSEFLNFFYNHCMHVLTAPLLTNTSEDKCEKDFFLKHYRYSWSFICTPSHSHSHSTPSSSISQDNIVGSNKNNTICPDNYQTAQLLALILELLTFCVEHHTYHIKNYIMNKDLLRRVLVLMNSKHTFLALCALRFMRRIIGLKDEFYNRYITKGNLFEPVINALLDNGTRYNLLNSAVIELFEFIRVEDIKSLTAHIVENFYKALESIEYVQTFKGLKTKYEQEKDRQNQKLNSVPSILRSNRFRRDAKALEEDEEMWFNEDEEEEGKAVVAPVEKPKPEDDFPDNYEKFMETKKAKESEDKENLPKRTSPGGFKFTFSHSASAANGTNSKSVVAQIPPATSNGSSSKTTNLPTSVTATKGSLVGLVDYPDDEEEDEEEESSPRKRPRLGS
UniProt P30153: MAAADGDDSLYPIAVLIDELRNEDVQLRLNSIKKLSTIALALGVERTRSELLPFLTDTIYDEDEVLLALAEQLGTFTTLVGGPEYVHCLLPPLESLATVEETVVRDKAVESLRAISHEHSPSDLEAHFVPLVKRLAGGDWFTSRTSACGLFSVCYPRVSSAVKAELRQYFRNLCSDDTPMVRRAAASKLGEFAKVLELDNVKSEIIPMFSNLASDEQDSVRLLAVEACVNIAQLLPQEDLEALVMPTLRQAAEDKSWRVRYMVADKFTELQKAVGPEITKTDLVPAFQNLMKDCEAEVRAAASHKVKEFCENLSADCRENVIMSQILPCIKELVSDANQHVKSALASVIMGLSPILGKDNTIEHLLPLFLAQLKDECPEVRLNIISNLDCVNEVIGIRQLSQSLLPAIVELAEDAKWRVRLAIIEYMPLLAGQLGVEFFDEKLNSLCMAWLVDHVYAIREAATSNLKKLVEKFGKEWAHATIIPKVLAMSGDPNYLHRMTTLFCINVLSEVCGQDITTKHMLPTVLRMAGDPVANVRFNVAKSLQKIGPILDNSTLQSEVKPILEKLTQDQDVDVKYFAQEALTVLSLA
UniProt P30154: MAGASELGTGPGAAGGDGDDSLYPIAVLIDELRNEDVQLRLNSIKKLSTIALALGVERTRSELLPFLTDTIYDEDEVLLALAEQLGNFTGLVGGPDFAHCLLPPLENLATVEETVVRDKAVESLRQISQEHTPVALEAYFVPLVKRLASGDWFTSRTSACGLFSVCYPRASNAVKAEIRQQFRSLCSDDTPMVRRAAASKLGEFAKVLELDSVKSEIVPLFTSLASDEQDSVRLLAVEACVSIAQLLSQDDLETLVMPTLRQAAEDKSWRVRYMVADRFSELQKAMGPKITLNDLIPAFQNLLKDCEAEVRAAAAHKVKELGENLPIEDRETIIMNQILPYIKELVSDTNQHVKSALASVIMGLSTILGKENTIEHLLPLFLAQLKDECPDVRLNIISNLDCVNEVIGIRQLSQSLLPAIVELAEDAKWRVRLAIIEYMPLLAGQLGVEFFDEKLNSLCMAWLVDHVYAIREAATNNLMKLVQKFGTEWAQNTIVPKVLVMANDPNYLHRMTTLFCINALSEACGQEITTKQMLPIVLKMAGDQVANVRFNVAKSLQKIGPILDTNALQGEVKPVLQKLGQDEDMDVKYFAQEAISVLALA

[3] = biological target: T2, 3xFLAG-tagged PP4c, wild type (human) (UniProt P60510)
T2 sequence: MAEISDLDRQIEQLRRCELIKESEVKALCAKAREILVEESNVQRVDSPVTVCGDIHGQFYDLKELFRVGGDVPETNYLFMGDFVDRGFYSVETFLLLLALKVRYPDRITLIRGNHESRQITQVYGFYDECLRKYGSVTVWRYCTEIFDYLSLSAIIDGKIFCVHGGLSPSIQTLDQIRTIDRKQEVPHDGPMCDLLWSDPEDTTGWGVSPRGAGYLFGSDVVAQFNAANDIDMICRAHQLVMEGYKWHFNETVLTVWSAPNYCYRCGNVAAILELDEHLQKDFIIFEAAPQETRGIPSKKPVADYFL

binding [1] | binding [2] | binding [3] | Substance
binds |  |  | B56α, PP2A regulatory subunit (from UniProt Q15172 1-486)
 | binds | binds | PP4R3β, PP4 regulatory subunit (from UniProt Q5MIZ7 1-849)
binds |  |  | PR65α, PP2A scaffolding (A) subunit (from UniProt P30153 1-589)
binds |  |  | PR65β, PP2A scaffolding (A) subunit (from UniProt P30154 1-601)

From PMC8630191
